Measured data: PubChem BioAssay AID1259254 (NCATS, 2017)
Shown is one part, drawn at random, of about 59,000 reagents tested. About 1,550 of all reagents (2.6%) count as active. 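G2 share is only a proxy for re-replication; each gene was hit by three separate siRNAs, and active genes were retested.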 A number with no mark means an inactive call. The numbers tell different reagents against one gene apart. Further read-outs or replicates are left out here. Not stated in the record: the amount of reagent.

Assay: 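Genome-wide screen for genes that prevent DNA re-replication in cancer cells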 (primary screen)
Cells: human HCT116 colorectal cancer cells
Reagent: single siRNA against human genes
Timing: 3 days
Read-out: 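Imaged Hoechst DNA stain sorts each cell into a cycle phase by DNA amount; per plate, G2 fraction set to 0% for non-targeting and 100% for GMNN siRNA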
Scale: G2 robust z-score and G2 cells, % of GMNN control: higher = more G2 cells, more excess DNA replication
Active means: 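An siRNA counts as active if its G2 robust z-score lies at least 5 MADs above the screen median; here such calls match roughly 38% of GMNN control or more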

| target | reagent | G2 robust z-score | G2 cells, % of GMNN control |
| --- | --- | --- | --- |
| CD300C | 1 | -0.0852 | 2.37 |
| CD300C | 2 | 1.41 | 12.9 |
| CD300C | 3 | 0.052 | 3.33 |
| LARGE2 | 1 | 1.5 | 13.5 |
| LARGE2 | 2 | -0.893 | -3.31 |
| LARGE2 | 3 | -1.02 | -4.18 |
| DNAI4 | 1 | -0.416 | 0.0376 |
| DNAI4 | 2 | 5.18 (active) | 39.4 |
| DNAI4 | 3 | 5.67 (active) | 42.9 |
| FAM120B | 1 | 2.82 | 22.8 |
| FAM120B | 2 | 0.821 | 8.75 |
| FAM120B | 3 | 4.03 | 31.3 |
| FANCM | 1 | 0.36 | 5.5 |
| FANCM | 2 | -0.463 | -0.292 |
| FANCM | 3 | -0.692 | -1.9 |
| REEP3 | 1 | -0.295 | 0.892 |
| REEP3 | 2 | -0.604 | -1.28 |
| REEP3 | 3 | -0.896 | -3.34 |
| GFRAL | 1 | -0.0557 | 2.58 |
| GFRAL | 2 | -0.247 | 1.23 |
| GFRAL | 3 | 0.0764 | 3.5 |
| CTSZ | 1 | 0.0245 | 3.14 |
| CTSZ | 2 | 0.547 | 6.82 |
| CTSZ | 3 | 0.0782 | 3.52 |
| GTF3C4 | 1 | -1.01 | -4.15 |
| GTF3C4 | 2 | 5.61 (active) | 42.5 |
| GTF3C4 | 3 | -0.0132 | 2.87 |
| BTBD1 | 1 | -0.932 | -3.59 |
| BTBD1 | 2 | -1.2 | -5.47 |
| BTBD1 | 3 | 0.0961 | 3.64 |

Ordered by “G2 robust z-score” (ascending): 3 of the entries above
| target | reagent | G2 robust z-score | G2 cells, % of GMNN control |
| --- | --- | --- | --- |
| REEP3 | 3 | -0.896 | -3.34 |
| REEP3 | 2 | -0.604 | -1.28 |
| REEP3 | 1 | -0.295 | 0.892 |
